Source: publication PMC11750108, “FlbB forms a distinctive ring essential for periplasmic flagellar assembly and motility in Borrelia burgdorferi” (PLOS Pathogens, 2025)

Target: MBP-FlcB (B. burgdorferi) (UniProt O51085)
Assay: pull-down; E. coli cells expressing FLAG-FlbB-His6 and MBP-FlcB mixed ~1:1, French pressed, purified on amylose resin; blot probed with anti-FLAG antibody

B1: FLAG-FlbB-His6 (deleted the first 42 aa from the FlbB) (domain or fragment)
chain: FPEFVRTKLLGETSLVFDHNSNIILDEARLVKEREAIDIKNQQIEKLKEDLKLKEDSLNKLEFELKQKQKDLDLKQKVIDDIINKYNDEEANILQTAVYLMNMPPEDAVKRLEDLNPELAISYMRKIEELSKKEGRLSIVPYWLSLMDSKKAAILIRKMSVSSLE
notes: FlbB, periplasmic flagellar collar protein of Borrelia burgdorferi (205 amino acids); the first 42 aa (with the N-terminal transmembrane helix) deleted; The deletion of the first 42 aa is stated only for the SEC-SAXS sample; Monomer estimated at 20.85 kDa; also called FlbB-6His; source: E. coli codon plus cells; in lysate of mixed cells (pull-downs); purified recombinant (SEC-SAXS, far-western); …
binding: binds

These are yes or no findings as the source states them, for the method shown. Binding seen in cells or lysates may run through a third protein. A result given as binding can be weak or reduced; the word gives no strength. Sequences can lack the tags named with a protein.
